{"source": "patent US10358416B2", "about": "(Ogeda SA, priority 2009, dated 2019)", "note": "For at least one compound, name, drawing or mass did not settle the structure.", "data": [{"test_system": "adipocytes isolated from normal rat", "test": "Lipolysis assay in isolated adipocytes (isoprenaline-induced lipolysis)", "type": "cell-based", "conditions": "compound at 30 μM (FIG. 1)", "values": [{"smiles": "Cc1ccccc1-c1ccc(C(=O)N2[C@@H](c3ccccc3Cl)CC[C@H]2C(=O)O)cc1", "note": "[Compound 2, (2S,5R)-5-(2-chlorophenyl)-1-(2′-methyl-[1,1′-biphenyl]-4-carbonyl)pyrrolidine-2-carboxylic acid]", "inhibition of isoprenaline-induced lipolysis": "inhibit"}, {"smiles": "O=C(O)[C@@H]1CC[C@H](c2ccccc2Cl)N1C(=O)c1ccc(-c2ccccc2F)cc1", "note": "[Compound 4, (2S,5R)-5-(2-chlorophenyl)-1-(2′-fluoro-[1,1′-biphenyl]-4-carbonyl)pyrrolidine-2-carboxylic acid]", "inhibition of isoprenaline-induced lipolysis": "inhibit"}, {"smiles": "Cc1ccc(-c2ccc(C(=O)N3[C@@H](c4ccccc4Cl)CC[C@H]3C(=O)O)cc2)cc1", "note": "[Compound 5]", "inhibition of isoprenaline-induced lipolysis": "inhibit"}, {"smiles": "O=C(O)[C@@H]1CC[C@H](c2ccccc2Cl)N1C(=O)c1ccc(-c2ccccc2)cc1", "note": "[Compound 8, (2S,5R)-1-([1,1′-biphenyl]-4-carbonyl)-5-(2-chlorophenyl)pyrrolidine-2-carboxylic acid]", "inhibition of isoprenaline-induced lipolysis": "inhibit"}, {"smiles": "O=C(O)[C@@H]1CC[C@H](c2ccccc2Cl)N1C(=O)c1ccc(-c2cccc(F)c2)cc1", "note": "[Compound 10, (2S,5R)-5-(2-chlorophenyl)-1-(3′-fluoro-[1,1′-biphenyl]-4-carbonyl)pyrrolidine-2-carboxylic acid]", "inhibition of isoprenaline-induced lipolysis": "inhibit"}, {"smiles": "Cc1cccc(-c2ccc(C(=O)N3[C@@H](c4ccccc4Cl)CC[C@H]3C(=O)O)cc2)c1", "note": "[Compound 11, (2S,5R)-5-(2-chlorophenyl)-1-(3′-methyl-[1,1′-biphenyl]-4-carbonyl)pyrrolidine-2-carboxylic acid]", "inhibition of isoprenaline-induced lipolysis": "inhibit"}, {"smiles": "COc1cccc(-c2ccc(C(=O)N3[C@@H](c4ccccc4Cl)CC[C@H]3C(=O)O)cc2)c1", "note": "[Compound 13, (2S,5R)-5-(2-chlorophenyl)-1-(3′-methoxy-[1,1′-biphenyl]-4-carbonyl)pyrrolidine-2-carboxylic acid]", "inhibition of isoprenaline-induced lipolysis": "inhibit"}]}]}
